# The supplement of paper PMC10373366
# Counter-ions that a name gives are not always drawn. The list shows a part of the results. Repeats are few or missing, and single values can be far off.
# System: patient-derived ovarian cancer cells (PDC)
# Assay: cell growth inhibition ratio vs untreated control (CCK8); higher = stronger inhibition of cell viability
# Conditions: 10 µM; 48 h
# Procedure: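 Natural product library (Topscience) screened at 10 µM final concentration for 48 h on ovarian cancer A2780 cells and patient-derived ovarian cancer cells (PDC) in 96-well plates; viability read by CCK8 and reported as inhibition ratio (%) relative to untreated control. Single-dose primary screen.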
row,Compound,cell growth inhibition ratio [%]
1,C=C(C)[C@@H]1CC[C@]2(C=O)CC[C@]3(C)[C@H](CC[C@@H]4[C@@]5(C)CC[C@H](O)C(C)(C)[C@@H]5CC[C@]43C)[C@@H]12 [Betulinaldehyde],15.4
2,COc1c2occc2c(OC)c2c(=O)cc(C)oc12 [Khellin],12.5
3,CC(C)=CCC[C@](C)(O[C@@H]1O[C@H](CO[C@@H]2O[C@H](CO)[C@@H](O)[C@H](O)[C@H]2O)[C@@H](O)[C@H](O)[C@H]1O)[C@H]1CC[C@]2(C)[C@@H]1[C@H](O)C[C@@H]1[C@@]3(C)CC[C@H](O[C@@H]4O[C@H](CO)[C@@H](O)[C@H](O)[C@H]4O)C(C)(C)[C@@H]3CC[C@]12C [Gypenoside XVII],-5.85
4,O=C(/C=C/c1ccc(O)c(O)c1)O[C@H](Cc1ccc(O)c(O)c1)C(=O)O [Rosmarinic acid],63.4
5,O=C1c2cccc3c2[C@H](CCC3)CN1[C@@H]1CN2CCC1CC2 [Palonosetron hydrochloride],-2.98
6,COc1cc2c(cc1O)[C@@H](Cc1ccc(Oc3cc(C[C@H]4c5cc(O)c(OC)cc5CCN4C)ccc3O)cc1)N(C)CC2 [magnolin],3.71
7,C[C@H]1[C@H](C)CC[C@]2(C(=O)O)CC[C@]3(C)C(=CC[C@@H]4[C@@]5(C)CC[C@H](O)C(C)(C)[C@@H]5CC[C@]43C)[C@H]12 [Ursolic acid],-10.1
8,OCC1=C[C@@H](O)[C@@H]2C=CO[C@@H](O[C@@H]3O[C@H](CO)[C@@H](O)[C@H](O)[C@H]3O)[C@H]12 [Aucubin],5.84
9,CO[C@@]12[C@H](COC(N)=O)C3=C(C(=O)C(C)=C(N)C3=O)N1C[C@@H]1N[C@@H]12 [Mitomycin C],83.6
10,COc1cc(O)c2c(c1)oc(=O)c1c3cc(O)c(O)cc3oc21 [Wedelolactone],32.9
11,C[C@H]1O[C@H](O[C@@H]2[C@@H](O)[C@H](OCCc3ccc(O)c(O)c3)O[C@H](CO[C@H]3OCC(O)(CO)[C@@H]3O)[C@H]2OC(=O)/C=C/c2ccc(O)c(O)c2)[C@@H](O)[C@@H](O)[C@@H]1O (stereo partly specified) [Forsythoside B],-14.8

# Reformatted: entries from further up
row	Compound	cell growth inhibition ratio [%]
6	COc1cc2c(cc1O)[C@@H](Cc1ccc(Oc3cc(C[C@H]4c5cc(O)c(OC)cc5CCN4C)ccc3O)cc1)N(C)CC2 [magnolin]	3.71
10	COc1cc(O)c2c(c1)oc(=O)c1c3cc(O)c(O)cc3oc21 [Wedelolactone]	32.9
